Chains of the proteins cited; added tags and fusions are not shown. Lines headed by an entry give the natural chain unless they say otherwise; changes in a name come on top. Residues count along the entry.
UniProt P02649, residues 19-317: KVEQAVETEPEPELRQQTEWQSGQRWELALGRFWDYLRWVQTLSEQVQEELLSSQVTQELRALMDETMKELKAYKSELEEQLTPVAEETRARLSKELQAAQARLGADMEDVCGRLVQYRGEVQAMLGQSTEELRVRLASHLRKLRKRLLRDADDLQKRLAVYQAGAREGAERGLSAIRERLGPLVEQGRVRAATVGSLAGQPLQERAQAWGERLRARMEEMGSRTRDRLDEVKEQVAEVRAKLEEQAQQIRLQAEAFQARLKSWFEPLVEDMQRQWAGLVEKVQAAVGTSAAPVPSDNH
UniProt P02656, residues 21-99: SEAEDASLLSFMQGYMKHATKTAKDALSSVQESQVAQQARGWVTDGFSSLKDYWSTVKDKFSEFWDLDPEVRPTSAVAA
UniProt P02647: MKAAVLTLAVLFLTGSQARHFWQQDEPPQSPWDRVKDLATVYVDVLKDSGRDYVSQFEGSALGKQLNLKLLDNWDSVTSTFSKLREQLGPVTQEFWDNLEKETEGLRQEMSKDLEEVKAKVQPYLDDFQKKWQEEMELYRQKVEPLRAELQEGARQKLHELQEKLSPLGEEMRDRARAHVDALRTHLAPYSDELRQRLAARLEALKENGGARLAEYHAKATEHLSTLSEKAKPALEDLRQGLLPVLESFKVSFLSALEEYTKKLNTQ

In article PMC10648649:

Key:
Test in all cases: ELISA; modified sandwich ELISA: human plasma in PBS on plates coated with an antibody to the defining protein, overnight 4 °C, 3 PBS washes; bound lipoprotein complexes dissociated with Tween diluent and their apoA-I measured on anti-apoA-I plates
[1] = molecular target: apolipoprotein E (human (endogenous in human serum and plasma)) (UniProt P02649)
[2] = molecular target: T1, alpha-2-macroglobulin (human (endogenous in human plasma)) (UniProt P01023)
T1 sequence: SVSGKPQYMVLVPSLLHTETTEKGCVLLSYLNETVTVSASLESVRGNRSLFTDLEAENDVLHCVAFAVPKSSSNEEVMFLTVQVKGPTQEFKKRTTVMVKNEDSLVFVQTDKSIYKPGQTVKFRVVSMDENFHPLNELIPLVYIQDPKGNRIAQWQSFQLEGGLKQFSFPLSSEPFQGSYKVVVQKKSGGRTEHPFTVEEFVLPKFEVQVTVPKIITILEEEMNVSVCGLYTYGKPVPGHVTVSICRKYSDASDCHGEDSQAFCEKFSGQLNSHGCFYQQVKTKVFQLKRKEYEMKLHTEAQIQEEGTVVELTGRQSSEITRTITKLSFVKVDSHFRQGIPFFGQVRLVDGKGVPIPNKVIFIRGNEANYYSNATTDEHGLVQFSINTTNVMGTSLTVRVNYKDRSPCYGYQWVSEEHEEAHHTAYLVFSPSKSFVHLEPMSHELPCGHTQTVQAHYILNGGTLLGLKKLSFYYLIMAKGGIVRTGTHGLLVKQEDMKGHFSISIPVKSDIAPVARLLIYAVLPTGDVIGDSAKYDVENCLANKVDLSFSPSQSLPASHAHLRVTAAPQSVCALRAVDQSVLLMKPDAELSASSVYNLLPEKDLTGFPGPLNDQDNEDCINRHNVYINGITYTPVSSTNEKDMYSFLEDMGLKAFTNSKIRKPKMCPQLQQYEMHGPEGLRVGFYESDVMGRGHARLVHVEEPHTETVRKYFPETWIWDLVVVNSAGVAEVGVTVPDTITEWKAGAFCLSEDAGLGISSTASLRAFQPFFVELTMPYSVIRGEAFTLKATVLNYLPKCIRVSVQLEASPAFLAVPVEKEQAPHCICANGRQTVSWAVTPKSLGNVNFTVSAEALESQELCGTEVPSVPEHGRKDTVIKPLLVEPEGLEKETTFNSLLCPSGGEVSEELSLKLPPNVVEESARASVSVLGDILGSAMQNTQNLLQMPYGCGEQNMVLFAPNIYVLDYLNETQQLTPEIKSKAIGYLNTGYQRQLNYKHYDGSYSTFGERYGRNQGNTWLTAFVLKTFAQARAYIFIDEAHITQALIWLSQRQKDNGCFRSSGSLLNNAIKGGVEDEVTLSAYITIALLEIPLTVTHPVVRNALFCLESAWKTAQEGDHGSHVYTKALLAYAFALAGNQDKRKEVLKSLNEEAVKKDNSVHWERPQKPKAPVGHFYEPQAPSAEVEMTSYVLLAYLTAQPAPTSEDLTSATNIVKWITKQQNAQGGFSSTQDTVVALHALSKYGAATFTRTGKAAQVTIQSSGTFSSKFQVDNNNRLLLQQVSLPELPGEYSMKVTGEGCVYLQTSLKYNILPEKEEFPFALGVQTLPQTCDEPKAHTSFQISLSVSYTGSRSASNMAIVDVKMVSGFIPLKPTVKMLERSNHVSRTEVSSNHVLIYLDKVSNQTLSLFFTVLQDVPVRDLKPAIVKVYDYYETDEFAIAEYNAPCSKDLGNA

[3] = molecular target: T2, apolipoprotein C-I (human (endogenous in human serum and plasma)) (UniProt P02654)
T2 sequence: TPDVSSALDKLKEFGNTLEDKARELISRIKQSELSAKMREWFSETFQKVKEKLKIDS

[4] = molecular target: apolipoprotein C-III (human (endogenous in human serum and plasma)) (UniProt P02656)

binding [1]: binds | binding [2]: binds | binding [3]: binds | binding [4]: binds
Substance: apolipoprotein A-I (from UniProt P02647)

Results are given in words; binding and its absence hold for the method and conditions named. Binding can be weak; no strength is given.
